Experimental findings from publication PMC9695642, “Conservation of Importin α Function in Apicomplexans: Ivermectin and GW5074 Target Plasmodium falciparum Importin α and Inhibit Parasite Growth in Culture” (International Journal of Molecular Sciences, 2022) are described below.

Results are given in words; binding and its absence hold for the method and conditions named. Some results given as binding are weak or reduced against the parent protein; the word gives no strength. Sequences can lack the tags named with a protein.

This assay has as its target T1, His-tagged Plasmodium falciparum importin α (Plasmodium falciparum) (UniProt Q8IAW0).
T1 sequence: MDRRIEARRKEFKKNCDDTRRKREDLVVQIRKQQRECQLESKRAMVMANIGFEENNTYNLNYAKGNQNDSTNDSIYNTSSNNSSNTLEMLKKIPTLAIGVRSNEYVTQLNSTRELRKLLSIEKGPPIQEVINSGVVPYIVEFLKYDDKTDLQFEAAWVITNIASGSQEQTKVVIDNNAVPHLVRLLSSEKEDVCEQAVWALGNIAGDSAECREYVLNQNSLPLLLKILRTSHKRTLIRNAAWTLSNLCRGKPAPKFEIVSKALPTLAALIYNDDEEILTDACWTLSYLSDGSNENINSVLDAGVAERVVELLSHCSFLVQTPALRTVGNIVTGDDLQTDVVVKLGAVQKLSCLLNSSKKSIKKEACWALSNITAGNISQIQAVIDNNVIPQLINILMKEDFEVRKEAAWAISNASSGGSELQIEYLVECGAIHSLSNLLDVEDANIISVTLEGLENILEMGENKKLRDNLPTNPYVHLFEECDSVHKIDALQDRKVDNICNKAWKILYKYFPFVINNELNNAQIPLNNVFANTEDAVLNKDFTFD
Put plainly: AlphaScreen or HTRF; IMPβ (30 nM) and IMPαs (30 nM) with increasing concentrations of ivermectin or GW5074 (inhibition by small molecules); both purified.

As to “biotinylated GST-MmIMPβ1 (Mus musculus importin β1) (from UniProt P70168 1-876)”, the binding result is listed as “binds”.
